Consider seven sequences from patent publication US20210147572A1, “ANTIBODIES AND METHODS OF USE THEREOF” (AbeXXa Biologics, Inc., priority 2017, published 2021).

This series concerns TAP (−). The experiment in a line: Peptide found on TAP (−) cells. On the set-up: species or system human. The following applies: peptide found or not found.

Turning to GLADKVYFL, the “TAP (−)” value is given as “found”.
In the case of MLALLTQVA, the “TAP (−)” value is listed as “found”.
The same measure for QMFEGPLAL: “found”; for SLLEKSLGL: “found”; for TLFFQQNAL: “found”.
TSDMPGTTL: the “TAP (−)” value was “found”.
For the sequence VLWDRTFSL, the “TAP (−)” value is “found”.
